{
  "sequences": {"note": "Chains of the proteins cited; added tags and fusions are not shown. Lines headed by an entry give the natural chain unless they say otherwise; changes in a name come on top.", "UniProt Q7L5N7": "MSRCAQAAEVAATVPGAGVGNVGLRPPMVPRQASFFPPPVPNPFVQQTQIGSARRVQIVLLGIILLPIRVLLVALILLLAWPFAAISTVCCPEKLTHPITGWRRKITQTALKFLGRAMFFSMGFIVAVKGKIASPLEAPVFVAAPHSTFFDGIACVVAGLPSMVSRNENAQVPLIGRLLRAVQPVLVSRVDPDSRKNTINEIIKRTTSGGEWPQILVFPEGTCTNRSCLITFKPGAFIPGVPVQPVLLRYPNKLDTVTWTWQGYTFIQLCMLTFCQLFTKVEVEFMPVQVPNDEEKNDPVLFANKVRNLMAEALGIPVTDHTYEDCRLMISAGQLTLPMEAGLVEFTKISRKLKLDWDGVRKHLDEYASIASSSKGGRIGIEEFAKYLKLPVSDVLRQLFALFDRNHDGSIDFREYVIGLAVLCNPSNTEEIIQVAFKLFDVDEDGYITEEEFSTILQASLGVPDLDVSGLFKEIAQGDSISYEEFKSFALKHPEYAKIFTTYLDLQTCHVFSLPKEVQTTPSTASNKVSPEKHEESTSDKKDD", "UniProt Q6UWE0": "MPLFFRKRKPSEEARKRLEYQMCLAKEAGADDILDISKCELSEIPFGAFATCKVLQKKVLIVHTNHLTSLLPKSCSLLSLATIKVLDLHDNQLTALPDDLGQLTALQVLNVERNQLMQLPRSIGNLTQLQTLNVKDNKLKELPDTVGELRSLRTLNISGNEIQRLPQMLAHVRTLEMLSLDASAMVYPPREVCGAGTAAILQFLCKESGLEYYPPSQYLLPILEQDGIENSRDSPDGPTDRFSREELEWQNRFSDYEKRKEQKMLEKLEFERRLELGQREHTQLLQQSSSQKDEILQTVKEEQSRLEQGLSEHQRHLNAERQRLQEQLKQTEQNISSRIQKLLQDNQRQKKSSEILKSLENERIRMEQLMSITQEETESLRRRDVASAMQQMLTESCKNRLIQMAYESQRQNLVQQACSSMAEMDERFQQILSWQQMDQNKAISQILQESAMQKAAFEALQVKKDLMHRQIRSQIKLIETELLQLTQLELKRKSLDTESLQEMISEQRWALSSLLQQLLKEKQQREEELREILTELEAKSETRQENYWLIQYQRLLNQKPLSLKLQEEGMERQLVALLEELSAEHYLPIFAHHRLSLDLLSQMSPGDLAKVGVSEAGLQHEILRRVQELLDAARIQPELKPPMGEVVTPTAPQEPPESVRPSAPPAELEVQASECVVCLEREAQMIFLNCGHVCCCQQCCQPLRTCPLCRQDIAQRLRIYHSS", "UniProt O60711": "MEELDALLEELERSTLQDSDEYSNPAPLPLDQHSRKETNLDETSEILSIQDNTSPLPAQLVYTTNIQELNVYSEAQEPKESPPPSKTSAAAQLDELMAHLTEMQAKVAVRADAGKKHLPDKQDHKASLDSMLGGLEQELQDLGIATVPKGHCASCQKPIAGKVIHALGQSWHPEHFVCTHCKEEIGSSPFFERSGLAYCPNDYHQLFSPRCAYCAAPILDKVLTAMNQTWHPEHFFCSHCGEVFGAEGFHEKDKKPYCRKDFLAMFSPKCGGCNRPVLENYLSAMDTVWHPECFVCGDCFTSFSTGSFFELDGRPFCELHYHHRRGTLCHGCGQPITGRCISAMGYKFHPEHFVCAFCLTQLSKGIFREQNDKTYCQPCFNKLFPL", "UniProt Q7L1W4": "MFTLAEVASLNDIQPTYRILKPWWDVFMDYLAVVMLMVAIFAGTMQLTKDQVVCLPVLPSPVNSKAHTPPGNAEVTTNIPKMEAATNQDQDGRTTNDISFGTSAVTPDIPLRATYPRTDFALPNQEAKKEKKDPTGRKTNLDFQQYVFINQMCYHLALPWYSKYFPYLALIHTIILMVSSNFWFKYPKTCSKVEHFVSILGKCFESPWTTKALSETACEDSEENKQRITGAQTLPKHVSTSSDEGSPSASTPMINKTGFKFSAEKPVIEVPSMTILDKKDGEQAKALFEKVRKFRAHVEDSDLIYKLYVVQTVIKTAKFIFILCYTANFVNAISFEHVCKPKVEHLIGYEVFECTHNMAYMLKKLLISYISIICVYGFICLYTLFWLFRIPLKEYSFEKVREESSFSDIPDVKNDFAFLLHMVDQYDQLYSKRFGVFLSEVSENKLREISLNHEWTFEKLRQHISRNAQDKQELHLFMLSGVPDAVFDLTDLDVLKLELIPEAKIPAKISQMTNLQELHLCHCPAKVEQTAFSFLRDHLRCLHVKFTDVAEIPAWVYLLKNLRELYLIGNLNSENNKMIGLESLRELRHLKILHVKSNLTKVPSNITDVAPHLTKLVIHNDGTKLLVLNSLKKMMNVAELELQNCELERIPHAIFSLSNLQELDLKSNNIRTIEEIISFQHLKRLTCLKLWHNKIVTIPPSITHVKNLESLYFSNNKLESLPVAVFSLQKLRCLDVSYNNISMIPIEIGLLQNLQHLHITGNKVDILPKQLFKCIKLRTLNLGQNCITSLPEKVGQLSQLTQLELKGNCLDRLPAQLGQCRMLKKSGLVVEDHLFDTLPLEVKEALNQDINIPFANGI", "UniProt P49917": "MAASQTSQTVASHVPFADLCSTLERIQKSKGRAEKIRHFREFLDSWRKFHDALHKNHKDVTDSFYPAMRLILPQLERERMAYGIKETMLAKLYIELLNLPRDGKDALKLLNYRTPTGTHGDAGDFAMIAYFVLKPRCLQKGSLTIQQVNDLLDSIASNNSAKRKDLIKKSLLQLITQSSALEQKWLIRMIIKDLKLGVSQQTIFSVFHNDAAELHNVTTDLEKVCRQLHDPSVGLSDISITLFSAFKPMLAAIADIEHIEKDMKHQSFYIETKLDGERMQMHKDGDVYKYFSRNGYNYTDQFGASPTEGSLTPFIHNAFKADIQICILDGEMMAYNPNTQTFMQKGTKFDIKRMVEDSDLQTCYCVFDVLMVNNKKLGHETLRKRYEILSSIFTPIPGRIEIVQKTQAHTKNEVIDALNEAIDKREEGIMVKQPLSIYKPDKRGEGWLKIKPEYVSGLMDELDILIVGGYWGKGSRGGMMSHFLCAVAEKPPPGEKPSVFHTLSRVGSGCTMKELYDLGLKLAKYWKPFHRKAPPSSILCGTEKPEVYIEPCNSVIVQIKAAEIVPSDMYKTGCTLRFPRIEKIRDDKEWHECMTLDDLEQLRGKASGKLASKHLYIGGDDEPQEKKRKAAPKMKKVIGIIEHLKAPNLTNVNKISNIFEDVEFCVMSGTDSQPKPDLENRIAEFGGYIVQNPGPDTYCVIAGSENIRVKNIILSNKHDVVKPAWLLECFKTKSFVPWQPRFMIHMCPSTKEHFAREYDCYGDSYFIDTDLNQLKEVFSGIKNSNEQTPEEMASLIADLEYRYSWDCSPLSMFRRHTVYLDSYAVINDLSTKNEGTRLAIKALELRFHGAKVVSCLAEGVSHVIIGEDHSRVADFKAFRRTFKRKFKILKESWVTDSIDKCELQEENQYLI", "UniProt Q96CX6, whole entry, looked up": "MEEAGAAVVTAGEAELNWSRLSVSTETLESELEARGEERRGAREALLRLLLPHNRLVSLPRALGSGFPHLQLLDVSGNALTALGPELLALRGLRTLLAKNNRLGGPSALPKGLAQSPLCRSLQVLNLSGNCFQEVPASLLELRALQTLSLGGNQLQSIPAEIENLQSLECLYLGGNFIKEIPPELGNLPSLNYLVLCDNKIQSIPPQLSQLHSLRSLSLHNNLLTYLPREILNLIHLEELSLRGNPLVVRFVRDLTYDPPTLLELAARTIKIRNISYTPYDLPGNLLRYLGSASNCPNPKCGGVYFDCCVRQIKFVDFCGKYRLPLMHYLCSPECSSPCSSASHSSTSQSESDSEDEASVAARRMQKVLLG", "UniProt Q15334": "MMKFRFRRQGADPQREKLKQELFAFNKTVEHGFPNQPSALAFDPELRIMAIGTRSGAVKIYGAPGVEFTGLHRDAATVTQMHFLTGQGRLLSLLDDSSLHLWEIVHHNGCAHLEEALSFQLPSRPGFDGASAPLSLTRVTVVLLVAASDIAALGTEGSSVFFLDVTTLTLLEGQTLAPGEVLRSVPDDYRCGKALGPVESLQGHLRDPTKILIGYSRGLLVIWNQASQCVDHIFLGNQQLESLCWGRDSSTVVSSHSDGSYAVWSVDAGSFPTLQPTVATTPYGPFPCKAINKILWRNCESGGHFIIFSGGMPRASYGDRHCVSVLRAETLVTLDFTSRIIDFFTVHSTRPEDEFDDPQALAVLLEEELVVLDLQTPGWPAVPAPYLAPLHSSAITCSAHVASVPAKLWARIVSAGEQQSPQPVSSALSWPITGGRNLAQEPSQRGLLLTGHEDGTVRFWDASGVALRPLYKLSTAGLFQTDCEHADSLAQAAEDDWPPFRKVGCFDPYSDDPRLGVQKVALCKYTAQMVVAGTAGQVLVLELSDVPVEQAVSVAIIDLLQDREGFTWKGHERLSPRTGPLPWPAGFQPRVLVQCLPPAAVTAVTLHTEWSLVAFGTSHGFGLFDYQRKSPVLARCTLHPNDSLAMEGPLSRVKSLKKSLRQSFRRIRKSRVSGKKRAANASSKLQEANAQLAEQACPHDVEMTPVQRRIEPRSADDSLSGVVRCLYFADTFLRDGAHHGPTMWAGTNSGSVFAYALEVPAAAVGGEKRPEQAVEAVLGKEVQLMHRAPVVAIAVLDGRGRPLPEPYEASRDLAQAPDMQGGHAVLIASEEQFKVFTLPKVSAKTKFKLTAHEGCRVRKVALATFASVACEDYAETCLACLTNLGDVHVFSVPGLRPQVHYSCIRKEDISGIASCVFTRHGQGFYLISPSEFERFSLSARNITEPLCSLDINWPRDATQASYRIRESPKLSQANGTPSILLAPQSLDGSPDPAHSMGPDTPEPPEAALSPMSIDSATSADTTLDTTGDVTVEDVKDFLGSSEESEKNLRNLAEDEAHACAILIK", "UniProt Q9UHB6": "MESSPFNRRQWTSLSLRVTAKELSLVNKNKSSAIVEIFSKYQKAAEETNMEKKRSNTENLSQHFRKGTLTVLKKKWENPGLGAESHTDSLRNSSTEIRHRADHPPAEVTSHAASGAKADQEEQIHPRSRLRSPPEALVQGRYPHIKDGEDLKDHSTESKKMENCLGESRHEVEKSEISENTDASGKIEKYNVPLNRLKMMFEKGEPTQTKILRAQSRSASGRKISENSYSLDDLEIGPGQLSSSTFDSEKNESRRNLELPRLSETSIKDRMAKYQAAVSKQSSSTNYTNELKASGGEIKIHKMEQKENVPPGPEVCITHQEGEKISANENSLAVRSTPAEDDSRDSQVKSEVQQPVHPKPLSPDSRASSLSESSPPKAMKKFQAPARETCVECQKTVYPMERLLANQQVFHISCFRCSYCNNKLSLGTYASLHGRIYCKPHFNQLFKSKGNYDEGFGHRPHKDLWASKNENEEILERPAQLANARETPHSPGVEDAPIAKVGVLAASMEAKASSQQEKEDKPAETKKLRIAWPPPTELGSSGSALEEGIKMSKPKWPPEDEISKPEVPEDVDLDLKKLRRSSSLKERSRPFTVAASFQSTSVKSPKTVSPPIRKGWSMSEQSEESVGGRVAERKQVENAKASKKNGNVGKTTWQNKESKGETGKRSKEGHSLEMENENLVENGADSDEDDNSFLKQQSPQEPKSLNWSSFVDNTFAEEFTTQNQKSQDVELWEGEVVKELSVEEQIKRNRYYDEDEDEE", "UniProt Q93052": "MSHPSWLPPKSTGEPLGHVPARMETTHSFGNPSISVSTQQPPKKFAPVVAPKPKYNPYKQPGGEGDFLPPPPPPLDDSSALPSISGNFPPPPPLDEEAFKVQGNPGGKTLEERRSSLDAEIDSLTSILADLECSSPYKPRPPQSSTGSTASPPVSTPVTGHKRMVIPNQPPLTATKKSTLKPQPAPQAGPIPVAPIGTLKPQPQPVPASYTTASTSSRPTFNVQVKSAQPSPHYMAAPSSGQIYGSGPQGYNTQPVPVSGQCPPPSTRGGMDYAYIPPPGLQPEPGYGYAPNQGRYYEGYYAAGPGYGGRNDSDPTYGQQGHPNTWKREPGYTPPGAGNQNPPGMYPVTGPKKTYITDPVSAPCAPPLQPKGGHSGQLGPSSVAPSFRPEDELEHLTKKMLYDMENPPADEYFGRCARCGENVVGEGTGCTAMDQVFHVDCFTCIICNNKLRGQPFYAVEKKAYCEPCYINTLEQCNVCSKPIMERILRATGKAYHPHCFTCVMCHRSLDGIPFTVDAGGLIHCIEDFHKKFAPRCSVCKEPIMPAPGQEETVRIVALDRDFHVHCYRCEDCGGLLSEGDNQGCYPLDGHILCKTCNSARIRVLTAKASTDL"},
  "source": "the supplement of paper PMC12067093",
  "about": "“Discovery and optimisation of a covalent ligand for TRIM25 and its application to targeted protein ubiquitination” (Chemical Science, 2025)",
  "compound": "Cc1cc(ccc1-c1ccccc1)C(=O)N1CCCN(CC1)C(=O)CCl [compound 10]",
  "experiment": "probe-labelled cysteine peptide fold change vs DMSO (competition) (log2 fold change); higher = less target engagement (more negative = stronger competition)",
  "settings": "THP-1, incubation time: 4 h",
  "note": "This is one part of the list.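 Note: competitive profiling in live THP-1 cells: cysteine peptides tagged with an iodoacetamide desthiobiotin (IA-DTB) probe, intensity after compound treatment relative to DMSO-treated cells.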",
  "data": [
    {"target": "LPCAT2_Q7L5N7_223_TTSGGEWPQILVFPEGTCTNR (UniProt Q7L5N7)", "values": [
      {"measurement": "probe-labelled cysteine peptide fold change", "setting": "10 µM", "result": -0.177},
      {"measurement": "probe-labelled cysteine peptide fold change", "setting": "50 µM", "result": -0.195}
    ]},
    {"target": "LRSAM1_Q6UWE0_193+205_EVCGAGTAAILQFLCK (UniProt Q6UWE0)", "values": [
      {"measurement": "probe-labelled cysteine peptide fold change", "setting": "10 µM", "result": 0.19},
      {"measurement": "probe-labelled cysteine peptide fold change", "setting": "50 µM", "result": 0.231}
    ]},
    {"target": "LPXN_O60711_340_CISAMGYK (UniProt O60711)", "values": [
      {"measurement": "probe-labelled cysteine peptide fold change", "setting": "10 µM", "result": -0.00957},
      {"measurement": "probe-labelled cysteine peptide fold change", "setting": "50 µM", "result": -0.275}
    ]},
    {"target": "LRRC8A_Q8IWT6_776_LECLPVELGECPLLK (UniProt Q8IWT6)", "values": [
      {"measurement": "probe-labelled cysteine peptide fold change", "setting": "10 µM", "result": -0.14},
      {"measurement": "probe-labelled cysteine peptide fold change", "setting": "50 µM", "result": -0.0991}
    ]},
    {"target": "LRRC8D_Q7L1W4_645_MMNVAELELQNCELER (UniProt Q7L1W4)", "values": [
      {"measurement": "probe-labelled cysteine peptide fold change", "setting": "10 µM", "result": -0.595},
      {"measurement": "probe-labelled cysteine peptide fold change", "setting": "50 µM", "result": 0.0779}
    ]},
    {"target": "LRP1_Q07954_3021_GGDPHSCK (UniProt Q07954)", "values": [
      {"measurement": "probe-labelled cysteine peptide fold change", "setting": "10 µM", "result": -0.193},
      {"measurement": "probe-labelled cysteine peptide fold change", "setting": "50 µM", "result": -0.308}
    ]},
    {"target": "LIG4_P49917_747_FMIHMCPSTK (UniProt P49917)", "values": [
      {"measurement": "probe-labelled cysteine peptide fold change", "setting": "10 µM", "result": 0.0104},
      {"measurement": "probe-labelled cysteine peptide fold change", "setting": "50 µM", "result": -0.0986}
    ]},
    {"target": "LRRC58_Q96CX6_119_GLAQSPLCR (UniProt Q96CX6)", "values": [
      {"measurement": "probe-labelled cysteine peptide fold change", "setting": "10 µM", "result": -0.121},
      {"measurement": "probe-labelled cysteine peptide fold change", "setting": "50 µM", "result": -0.519}
    ]},
    {"target": "LIG4_P49917_593_EWHECMTLDDLEQLR (UniProt P49917)", "values": [
      {"measurement": "probe-labelled cysteine peptide fold change", "setting": "10 µM", "result": -0.111},
      {"measurement": "probe-labelled cysteine peptide fold change", "setting": "50 µM", "result": -0.0339}
    ]},
    {"target": "LPCAT2_Q7L5N7_223_RTTSGGEWPQILVFPEGTCTNR (UniProt Q7L5N7)", "values": [
      {"measurement": "probe-labelled cysteine peptide fold change", "setting": "10 µM", "result": -0.109},
      {"measurement": "probe-labelled cysteine peptide fold change", "setting": "50 µM", "result": -0.0316}
    ]},
    {"target": "LLGL1_Q15334_1059_NLAEDEAHACAILIK (UniProt Q15334)", "values": [
      {"measurement": "probe-labelled cysteine peptide fold change", "setting": "10 µM", "result": -0.45},
      {"measurement": "probe-labelled cysteine peptide fold change", "setting": "50 µM", "result": -0.377}
    ]},
    {"target": "LPCAT2_Q7L5N7_4_CAQAAEVAATVPGAGVGNVGLRPPMVPR (UniProt Q7L5N7)", "values": [
      {"measurement": "probe-labelled cysteine peptide fold change", "setting": "10 µM", "result": -0.251},
      {"measurement": "probe-labelled cysteine peptide fold change", "setting": "50 µM", "result": -0.725}
    ]},
    {"target": "LIMA1_Q9UHB6_164_MENCLGESR (UniProt Q9UHB6)", "values": [
      {"measurement": "probe-labelled cysteine peptide fold change", "setting": "10 µM", "result": -0.173},
      {"measurement": "probe-labelled cysteine peptide fold change", "setting": "50 µM", "result": 0.0626}
    ]},
    {"target": "LPP_Q93052_502_AYHPHCFTCVMCHR (UniProt Q93052)", "values": [
      {"measurement": "probe-labelled cysteine peptide fold change", "setting": "10 µM", "result": -0.0768},
      {"measurement": "probe-labelled cysteine peptide fold change", "setting": "50 µM", "result": 0.18}
    ]}
  ]
}
